Tests used:
[1] = target: Sm.5HTRL (Schistosoma mansoni, UniProt A0A173FEI8); test: GloSensor cAMP assay, HEK293 cells transiently transfected with Sm.5HTRL; type: cell-based; conditions: antagonists 10 μM; 5-HT EC80 dose 0.8 μM (FIG. 8)
Method: (§1) HEK293 cells (ATCC CRL-1573.3) were cultured in DMEM supplemented with 10% fetal bovine serum (FBS), penicillin (100 units/mL), streptomycin (100 μg/mL), and L-glutamine (290 μg/mL). Cells were transiently transfected (ViaFect, Promega) as per the manufacturer's protocol at a density of 2×10^6 cells per T-25 cell-culture flask. Cells were transfected with plasmids encoding GloSensor (Promega) and either Sm.5HTR, (Smp_126730, GenBank accession number KF444051.1) or Sm.5HTRL (KX150867), both GPCRs being codon optimized for mammalian expression, or Hs.5HT7a (GenBank accession number NM_000872.4, R&D Systems) subcloned into pCS2(−). Cell culture reagents were from Invitrogen. Epitope tagged constructs were used to verify expression, and untagged constructs used for all luminescence assays.
(§2) For assays performed on adherent cells, HEK-293 cells were transferred one day post transfection to 96 well, solid white plates (Corning, cat #3917) coated with 0.01% poly-L-lysine (Sigma Aldrich) at a density of 5×10^4 cells/well in DMEM supplemented with 1% dialyzed FBS (Gibco). […] Plates were allowed to equilibrate at room temperature for two hours prior to performing luminescence assays (GloMax-Multi Detection System plate reader, Promega). […]

Protein sequences, listed by entry. Tags and fused reporters are not part of them.
UniProt A0A173FEI8, entry or part of it: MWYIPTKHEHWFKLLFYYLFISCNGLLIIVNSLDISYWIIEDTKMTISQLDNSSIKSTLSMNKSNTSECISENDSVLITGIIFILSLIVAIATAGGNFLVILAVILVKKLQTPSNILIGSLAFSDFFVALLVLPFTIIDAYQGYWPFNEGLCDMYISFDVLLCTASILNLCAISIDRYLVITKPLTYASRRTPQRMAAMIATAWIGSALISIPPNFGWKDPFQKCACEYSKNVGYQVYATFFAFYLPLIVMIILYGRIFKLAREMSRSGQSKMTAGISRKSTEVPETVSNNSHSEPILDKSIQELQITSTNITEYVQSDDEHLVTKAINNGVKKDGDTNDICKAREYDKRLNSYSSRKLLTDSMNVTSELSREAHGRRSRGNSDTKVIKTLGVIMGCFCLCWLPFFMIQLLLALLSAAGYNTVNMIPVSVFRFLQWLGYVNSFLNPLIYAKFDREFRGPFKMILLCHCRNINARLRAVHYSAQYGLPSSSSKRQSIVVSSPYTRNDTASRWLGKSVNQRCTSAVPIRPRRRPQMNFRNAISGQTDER
UniProt G4V5G4, entry or part of it: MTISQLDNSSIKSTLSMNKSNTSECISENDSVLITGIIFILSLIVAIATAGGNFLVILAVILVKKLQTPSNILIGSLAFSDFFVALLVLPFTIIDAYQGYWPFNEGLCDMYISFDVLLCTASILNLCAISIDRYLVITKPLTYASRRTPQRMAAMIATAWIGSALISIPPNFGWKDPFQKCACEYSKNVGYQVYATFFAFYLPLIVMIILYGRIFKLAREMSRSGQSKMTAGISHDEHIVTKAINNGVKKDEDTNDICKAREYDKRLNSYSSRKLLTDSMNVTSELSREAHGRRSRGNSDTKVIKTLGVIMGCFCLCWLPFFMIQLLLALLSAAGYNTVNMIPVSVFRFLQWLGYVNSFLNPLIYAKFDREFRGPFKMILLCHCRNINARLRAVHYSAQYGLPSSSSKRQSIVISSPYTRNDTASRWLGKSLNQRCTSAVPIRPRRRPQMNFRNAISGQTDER

[2] = target: Sm.5HTR (Schistosoma mansoni, UniProt G4V5G4); type: cell-based
Method: as §1, §2
The protocol for screening is shown schematically in FIG. 5A. […] Luminescence was then read at a fixed time point (t=60 minutes, FIG. 5A). […]

[3] = target: Sm.5HTR (Schistosoma mansoni, UniProt A0A173FEI8); test: cell-based; conditions: HEK293, read-out: Sm.5HTR Emax
Method: HEK293 cells (ATCC CRL-1573.3) were cultured in growth media consisting of DMEM supplemented with GlutaMAX (Gibco cat #10566016)+10% heat inactivated fetal bovine serum and penicillin-streptomycin (100 units/mL, ThermoFisher). Stable cell lines for the pGloSensor-22F cAMP Plasmid (Promega) and schistosome 5HTRs in pcDNA3.1(−) were selected with hygromycin (200 μg/mL) and G418 (400 μg/mL). The correct identity of each stably expressed sequence was verified by isolating total RNA from each stable line (TRIzol Reagent, Ambion) and amplifying the sequence of interest with gene specific primers flanking the 5′ and 3′ regions of the cds (SuperScript® III One-Step RT-PCR System, Invitrogen). PCR products were ligated into a TA cloning vector (pGEM-T Easy, Promega) and sequenced.
HEK293 lines stably expressing both the 22F cAMP sensor and Sm.5HTR were cultured in growth media supplemented with 10% dialyzed FRS. For cAMP assays in 96 well format, cells cultured in T-75 flasks were trypsinized (TrypLE Express, Gibco) and plated in solid white 96 well plates (Costar cat #3917) the day prior to assay at a density of 2.5×10^4 cells/well. […] Readings performed in 384 well format were modified so that cells were assayed in suspension. […]

## Cc1ccccc1C(OCCN(C)C)c1ccccc1 (stereo not drawn) [orphenadrine]
[1]
  inhibition of 5-HT evoked cAMP generation through Sm.5HTRL: inhibited 5-HT evoked cAMP generation through Sm.5HTRL
[2]
  selectivity Sm.5HTR versus Hs.5HT7R (IC50 (Hs.5HT7R)/IC50 (Sm.5HTR)), in words: clear selectivity for Sm.5HTR

## CCN(CC)C(=O)N[C@H]1C=C2c3cccc4[nH]cc(c34)C[C@H]2N(C)C1 [lisuride]
[3]
  Emax: 59 ± 25%

Source: patent publication US10426772B2, “Use of ergot alkaloids as an anthelmintic agent” (priority 2016, dated 2019)
